Source: article PMC8541776
Results are given in words; binding and its absence hold for the method and conditions named. A result given as binding can be weak or reduced; the word gives no strength. Tags and fused reporters may be left off the sequences shown. For some of these results: Binding seen in cells or lysates may run through a third protein.

Amino acid sequences for entries named in this document (tags omitted). A change or cut given only in a name is not applied to a line headed by its entry.
UniProt Q10ED2: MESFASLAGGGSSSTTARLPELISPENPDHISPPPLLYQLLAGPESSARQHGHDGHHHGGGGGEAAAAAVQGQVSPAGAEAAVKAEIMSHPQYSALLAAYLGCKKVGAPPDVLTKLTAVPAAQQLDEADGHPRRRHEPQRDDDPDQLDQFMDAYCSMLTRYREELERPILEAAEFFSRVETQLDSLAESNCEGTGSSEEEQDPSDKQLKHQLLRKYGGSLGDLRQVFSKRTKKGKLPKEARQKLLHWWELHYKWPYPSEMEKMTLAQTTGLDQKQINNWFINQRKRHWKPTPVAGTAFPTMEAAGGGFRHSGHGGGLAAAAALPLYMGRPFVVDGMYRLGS

Columns and labels:
[1] = molecular target: OSH43 fused to the N-terminal luciferase domain (nLuc) (rice (Oryza sativa), Nipponbare) (UniProt Q10ED2); test: split reporter; split-luciferase: KNOX class 1 proteins with nLuc, SLR1 with cLuc, in tobacco leaves by Agrobacterium; CCD imaging after 36 h in the dark
[2] = molecular target: HOX domain of OSH1 fused to the GAL4 binding domain (rice (Oryza sativa)); test: two-hybrid; GAL4 system in S. cerevisiae AH109; KNOX class 1 proteins (and truncated OSH1) on pGBKT7 (BD), SLR1 (full length and truncated) on pGADT7 (AD); selection on SD/-Trp/-Leu/-His/-Ade
[3] = molecular target: KNOX 1 domain of OSH1 fused to the GAL4 binding domain (rice (Oryza sativa)); test: as above
[4] = molecular target: OSH43 fused to the N-terminal region of YFP (nYFP) (rice (Oryza sativa)); test: split reporter; BiFC: SLR1-cYFP and KNOX-nYFP co-infiltrated by Agrobacterium GV3101 into N. benthamiana leaves; YFP read by confocal microscopy after 48 h

B1: SLR1 fused to the C-terminal luciferase domain (cLuc) (protein, UniProt Q7G7J6 1-625)
chain: MKREYQEAGGSSGGGSSADMGSCKDKVMAGAAGEEEDVDELLAALGYKVRSSDMADVAQKLEQLEMAMGMGGVSAPGAADDGFVSHLATDTVHYNPSDLSSWVESMLSELNAPLPPIPPAPPAARHASTSSTVTGGGGSGFFELPAAADSSSSTYALRPISLPVVATADPSAADSARDTKRMRTGGGSTSSSSSSSSSLGGGASRGSVVEAAPPATQGAAAANAPAVPVVVVDTQEAGIRLVHALLACAEAVQQENFAAAEALVKQIPTLAASQGGAMRKVAAYFGEALARRVYRFRPADSTLLDAAFADLLHAHFYESCPYLKFAHFTANQAILEAFAGCHRVHVVDFGIKQGMQWPALLQALALRPGGPPSFRLTGVGPPQPDETDALQQVGWKLAQFAHTIRVDFQYRGLVAATLADLEPFMLQPEGEADANEEPEVIAVNSVFELHRLLAQPGALEKVLGTVHAVRPRIVTVVEQEANHNSGSFLDRFTESLHYYSTMFDSLEGGSSGQAELSPPAAGGGGGTDQVMSEVYLGRQICNVVACEGAERTERHETLGQWRNRLGRAGFEPVHLGSNAYKQASTLLALFAGGDGYRVEEKEGCLTLGWHTRPLIATSAWRVAAA
B1 was tested, and the binding [1] was “binds”.

B2: C-terminal GRAS domain of SLR1 fused to the GAL4 activation domain (domain or fragment, UniProt Q7G7J6 232-621)
chain: VDTQEAGIRLVHALLACAEAVQQENFAAAEALVKQIPTLAASQGGAMRKVAAYFGEALARRVYRFRPADSTLLDAAFADLLHAHFYESCPYLKFAHFTANQAILEAFAGCHRVHVVDFGIKQGMQWPALLQALALRPGGPPSFRLTGVGPPQPDETDALQQVGWKLAQFAHTIRVDFQYRGLVAATLADLEPFMLQPEGEADANEEPEVIAVNSVFELHRLLAQPGALEKVLGTVHAVRPRIVTVVEQEANHNSGSFLDRFTESLHYYSTMFDSLEGGSSGQAELSPPAAGGGGGTDQVMSEVYLGRQICNVVACEGAERTERHETLGQWRNRLGRAGFEPVHLGSNAYKQASTLLALFAGGDGYRVEEKEGCLTLGWHTRPLIATSAWR
With B2 the binding [2] was “binds” and the binding [3] was “binds”.

B3: SLR1 fused to the C-terminal region of YFP (SLR1-cYFP) (protein, UniProt Q7G7J6 1-625)
chain: B1 chain
For B3, the binding [4] was “binds”.
